Measurements reported in patent US20150141411A1, “SUBSTITUTED 3,4-DIHYDRO-2H-PYRIDO[1,2-A]PYRAZINE-1,6-DIONE DERIVATIVES USEFUL FOR THE TREATMENT OF (INTER ALIA) ALZHEIMER'S DISEASE” (Janssen Pharmaceuticals, Inc., priority 2012, published 2015).

Legend:
γ-secretase [1] = target: T1, γ-secretase (Homo sapiens, UniProt P49768); assay: Screening for γ-secretase-modulating activity: Aβ42 in supernatant of SKNBE2 cells carrying hAPP 695 wild type (Alphalisa); conditions: read-out: IC50 Aβ42, SKNBE2 human neuroblastoma cells carrying hAPP 695 wild type, overnight incubation, Aβ42 in cell supernatant
Experimental: (§1) Screening was carried out using SKNBE2 human neuroblastoma cells carrying the hAPP 695—wild type, grown in Dulbecco's Modified Eagle's Medium/Nutrient mixture F-12 (DMEM/NUT-mix F-12) (HAM) provided by Invitrogen (cat no. 10371-029) containing 5% Serum/Fe supplemented with 1% non-essential amino acids, 1-glutamine 2 mM, Hepes 15 mM, penicillin 50 U/ml (units/ml) en streptomycin 50 μg/ml. Cells were grown to near confluency.
(§2) The screening was performed using a modification of the assay as described in Citron et al (1997) Nature Medicine 3: 67. […]
(§3) Aβtotal and Aβ42 concentrations were quantified in the cell supernatant using the Aphalisa technology (Perkin Elmer). […] To quantify the amount of Aβ42 in the cell supernatant, monoclonal antibody specific to the C-terminus of Aβ42 (JRF/cAβ42/26) was coupled to the receptor beads and biotinylated antibody specific to the N-terminus of Aβ (JRF/AβN/25) was used to react with the donor beads. To quantify the amount of Aβtotal in the cell supernatant, monoclonal antibody specific to the N-terminus of Aβ (JRF/AβN/25) was coupled to the receptor beads and biotinylated antibody specific to the mid region of Aβ (biotinylated 4G8) was used to react with the donor beads.
(§4) To obtain the values reported in Table 3, the data are calculated as percentage of the maximum amount of amyloid Beta 42 measured in the absence of the test compound. […]

γ-secretase [2] = target: T1, γ-secretase; assay: Screening for γ-secretase-modulating activity: Aβtotal in supernatant of SKNBE2 cells carrying hAPP 695 wild type (Alphalisa); conditions: read-out: IC50 Aβtotal, SKNBE2 human neuroblastoma cells carrying hAPP 695 wild type, overnight incubation, Aβtotal in cell supernatant
Experimental: as §1, §2, §3, §4

Row | SMILES | IC50 (γ-secretase [1]) | IC50 (γ-secretase [2])
1 | Cc1cn(-c2ccc3n(c2=O)C[C@@H](C)N(C(C)c2c[nH]c4ccc(Cl)cc24)C3=O)cn1 (stereo partly shown) | 930 nM | 7000 nM
2 | Cc1cn(-c2ccc3n(c2=O)CC(C)N(C2Cc4ccccc4C2)C3=O)cn1 (single isomer, unassigned) | 930 nM | > 10000 nM

The match of structure and compound is tentative.
